Laboratory results: PubChem BioAssay AID2685 (National Center for Advancing Translational Sciences (NCATS), 2010)
This is one part of the list. These are further read-outs of the screen, such as a control signal, another cell line or another target. No call is given for them. The list favours compounds with an active or inconclusive main result. Potencies come from curve fits of mixed quality, noted in brackets.

Experiment: qHTS Assay for Lipid Storage Modulators in Drosophila S3 Cells;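 for cell number change: cells counted by Cell Tracker Red CMTPX staining in the red channel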
Settings: BODIPY lipid droplet fluorescence, 18-24 h; for cell number change: measured here: cell count max response, cells fed with added oleic acid
In short: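 Drosophila S3 cells got compounds at several concentrations plus oleic acid (400 uM solution). Laser-scanning cytometry with 488 nm excitation read lipid droplets at 500-530 nm and cells at 575-640 nm. Percent activity was relative to 20 uM Triacsin C.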

[1] = measured here: lipid fluorescence (Fed channel) AC50, cells fed with added oleic acid
[2] = measured here: cell number channel AC50, cells fed with added oleic acid

| Structure (SMILES) | cell number change | AC50 [1] | AC50 [2] |
| --- | --- | --- | --- |
| COC(=O)c1noc(-c2ccc(OC)cc2)n1 | -3.99% | 0.00461 µM [falling, full curve, poor fit] | – |
| Cc1c(OC(C)C(=O)NCC2CCC(C(=O)O)CC2)ccc2c(-c3ccccc3)cc(=O)oc12 (stereo not given) | -12.9% | 4.11 µM [falling, full curve] | – |
| COc1ccccc1C1CCN(c2cc(O)ccc2[N+](=O)[O-])CC1 | -58.5% | 20.6 µM [falling, partial curve] | 16.4 µM [falling, single point] |
| CCCCCOC(=O)Nc1nnc(CCC)s1 | -24.5% | 3.26 µM [falling, single point] | 4.11 µM [falling, full curve, poor fit] |
| COc1cc2c(cc1OC)C1=NC(=O)CN1C(SCc1ccccc1C)=N2 | -13.5% | – | – |
| CCn1c(C)c(C)c2cc(C(=O)NCCCN3CCOCC3)ccc21 | -5.32% | – | – |
| O=C(NCC1CCCO1)c1cccc(S(=O)(=O)N2CCCCC2)c1 (stereo not given) | 14.4% | 29.1 µM [rising, partial curve, poor fit] | – |
| CC(C)(O)C#Cc1ccc(C(=O)Nc2ccc3c(c2)OCO3)s1 | 1.22% | 0.461 µM [rising, full curve, poor fit] | – |
| CN1c2ccc(C=O)c3c(C=O)ccc(c23)N(C)C1(C)C | -70% | 23.1 µM [falling, partial curve] | 29.1 µM [falling, single point] |
| CC(C)(CSc1ncccn1)NS(=O)(=O)c1ccccc1 | 17.9% | 0.0259 µM [rising, full curve, poor fit] | – |
| O=C(O)c1ccc(NS(=O)(=O)c2ccc3c(c2)OCCO3)cc1 | 2.87% | 16.4 µM [falling, partial curve, poor fit] | – |
| COc1ccc(C2(C)NC(=O)N(CC(=O)Nc3ccc(-c4nc5ccc(C)cc5s4)cc3)C2=O)cc1 (stereo not given) | -45.7% | 0.316 µM [falling, full curve, poor fit] | – |
| Cc1ccc(-c2cc(C(=O)Nc3ccc(S(=O)(=O)N4CC(C)OC(C)C4)cc3)[nH]n2)c(O)c1 (stereo not given) | -18% | 29.1 µM [falling, single point] | – |
| COc1ccc(NC(=O)CSc2cc(C)ccc2C)cn1 | -2.81% | – | – |
| CCCc1cc(=O)[nH]c(SCC(N)=O)n1 | -21.9% | 7.31 µM [falling, partial curve] | – |
| O=S(=O)(NCc1ccccc1)NCc1ccc(Cl)cc1Cl | -3.6% | 16.4 µM [falling, single point] | 0.291 µM [rising, partial curve, poor fit] |
| O=C(NNC(=O)c1ccccc1F)c1ccc(-c2ccc(Cl)cc2)o1 | 7.07% | – | 0.731 µM [falling, single point] |
| COc1ccc2c(c1)SC1=NCCS(=O)(=O)N12 | 5.3% | – | – |
| Cc1sc2nc(-c3cccnc3)nc(Cl)c2c1-c1ccccc1 | 30.6% | 16.4 µM [rising, single point] | 25.9 µM [rising, single point] |
| N#Cc1ccc(-c2csc(NNC(=O)c3ccccc3)n2)cc1 | 0.638% | – | – |

Arranged by molecular weight (smallest number first): some entries from above

| Structure (SMILES) | cell number change | AC50 [1] | AC50 [2] |
| --- | --- | --- | --- |
| CCCc1cc(=O)[nH]c(SCC(N)=O)n1 | -21.9% | 7.31 µM [falling, partial curve] | – |
| COc1ccccc1C1CCN(c2cc(O)ccc2[N+](=O)[O-])CC1 | -58.5% | 20.6 µM [falling, partial curve] | 16.4 µM [falling, single point] |
| CCn1c(C)c(C)c2cc(C(=O)NCCCN3CCOCC3)ccc21 | -5.32% | – | – |

Next results.

| Structure (SMILES) | cell number change | AC50 [1] | AC50 [2] |
| --- | --- | --- | --- |
| OCCNNC(=S)NC1CC2C=CC1C2 (stereo not given) | 8.72% | 6.51 µM [falling, single point] | 5.17 µM [falling, single point] |
| O=C(c1nnc(Cc2ccc(Cl)cc2)o1)N1CCOCC1 | -14.1% | 3.26 µM [falling, single point] | – |
| CC(C)(C)NC(=O)c1ccncc1 | 4.07% | 1.16 µM [falling, full curve] | – |
| Cc1ccc(CNC(=O)C2CCCN2S(=O)(=O)c2ccc(F)cc2)cc1 (stereo not given) | 11.8% | 18.4 µM [rising, single point] | – |
| CS(=O)(=O)N1CCN(c2ccc(NC(=O)COc3ccccc3[N+](=O)[O-])cc2)CC1 | 16.5% | – | – |
| COc1ccc(C2CC(c3ccc(Cl)cc3Cl)Nc3nc(N)nn32)cc1 (stereo not given) | – | 0.58 µM [rising, full curve, poor fit] | – |
| Cc1cc(NC(=O)c2ccccc2)n(-c2nc3ccccc3[nH]2)n1 | 19.3% | 1.84 µM [rising, partial curve] | – |
| CCOc1ccc(C(=O)NC2CCN(S(C)(=O)=O)CC2)cc1 | 6.93% | – | – |
| Cc1onc(-c2ccc3c(c2)OCO3)c1-c1ccc2[nH]ccc2c1 | -10.7% | 11.6 µM [rising, single point] | – |
| COc1ccccc1NS(=O)(=O)c1ccc2oc(=O)ccc2c1 | 0.88% | – | – |
| O=C(/C=C1\NC2(CCCC2)Cc2ccccc21)C(=O)N/N=C/c1ccc(O)c(O)c1 | -17.2% | 29.1 µM [falling, partial curve, poor fit] | – |
| CCc1nnc(NC(=O)[C@@H](NC(=O)c2cc(OC)cc(OC)c2)C(C)C)s1 | 118% | 29.1 µM [rising, partial curve] | 29.1 µM [rising, partial curve, poor fit] |
| CC(=O)Nc1cccc(NC(=O)COc2ccc3c(c2)OCO3)c1 | 23.1% | 6.51 µM [rising, single point] | – |
| O=c1c2c(nc(NCCO)n1CC1CCCCC1)-c1ccccc1CC21CCCC1 | -6.71% | – | – |
| CC1(C)C2CCC1(C)C(OC(=O)C[n+]1ccccc1N)C2 (stereo not given) | -18.1% | 3.26 µM [falling, full curve] | – |
| CCOc1ccc(C(=O)NCC(=O)OCC(=O)N2CCCC2)cc1 | 2.6% | – | 0.517 µM [falling, single point] |
| CCOc1ccc(CN2CCN(c3cc(C)nc4c5c(C)cc(C)nc5nn34)CC2)cc1 | – | 0.58 µM [rising, single point] | 1.84 µM [rising, partial curve] |
| COc1ccccc1CNC(=O)CCNS(=O)(=O)c1ccc2c(c1)CC(C)N2C(C)=O (stereo not given) | 17.3% | – | – |
| Cn1cccc1C1C(C#N)=C(N)OC2=C1C(=O)CCC2 (stereo not given) | 0.234% | 16.4 µM [falling, single point] | 4.11 µM [rising, single point] |
| CC(=O)N1CCCc2cc(S(=O)(=O)N3CCCC(C(=O)NCc4ccccc4Cl)C3)ccc21 (stereo not given) | -3.67% | – | – |

| Structure (SMILES) | cell number change | AC50 [1] | AC50 [2] |
| --- | --- | --- | --- |
| COCCn1c(Cc2cccn2C)nnc1SCC(=O)NCc1ccc2c(c1)OCO2 | -43.4% | 16.4 µM [falling, single point] | 29.1 µM [falling, single point] |
| CCC1CCCCN1S(=O)(=O)c1ccc(NC(=O)c2nc(S(C)(=O)=O)ncc2Cl)cc1 (stereo not given) | -23.2% | 29.1 µM [falling, single point] | – |
| O=C(NCCN1CCN(c2ccccc2F)CC1)C1c2ccccc2C(=O)N2CCc3ccccc3C12 (stereo not given) | 91% | 29.1 µM [rising, single point] | 20.6 µM [rising, single point] |
| Cc1cc(C)c(OCCCCN(C)Cc2ccccc2)c(C)c1 | – | 0.259 µM [falling, partial curve] | – |
| CCCCN(C)Cc1c(C)[nH]c2ccc(C)cc2c1=O | 5.99% | 29.1 µM [rising, single point] | – |
| NC(=S)NN=C(Cc1ccccc1)Cc1ccccc1 | -12.3% | – | 0.184 µM [falling, full curve, poor fit] |
| CN(C1CCCCC1)S(=O)(=O)c1ccc(-c2ccccn2)s1 | -3.7% | – | – |
| Cc1ccc(S(=O)(=O)c2nc(C)oc2N2CCOCC2)cc1 | -16.4% | 5.8 µM [falling, partial curve] | – |
| COCCNC(=O)c1ccccc1NC(=O)c1ccccc1SC | 33.7% | 5.17 µM [rising, full curve] | 4.11 µM [rising, full curve, poor fit] |
| O=C(CSc1ccc(-c2cccnc2)nn1)Nc1ccc(F)c(F)c1 | 17% | 0.1 µM [rising, full curve, poor fit] | 2.51 µM [rising, partial curve] |
| CC(=O)Nc1ccc(OCC(O)Cn2cncn2)cc1 (stereo not given) | -17.8% | 18.4 µM [falling, single point] | – |
| CCCS(=O)(=O)Nc1ccc(N2CCCCC2)c(S(=O)(=O)Nc2ccccc2OC)c1 | 36% | – | 2.06 µM [rising, full curve] |
| O=C(NC1CCCCC1)c1ccc(S(=O)(=O)c2ccccc2Cl)c([N+](=O)[O-])c1 | 0.0856% | 20.6 µM [falling, single point] | – |
| Cc1ccc(C)c(OC(=O)c2cccc(S(=O)(=O)N3CCN(C)CC3)c2)c1 | 13.6% | 2.31 µM [rising, partial curve] | 5.8 µM [rising, single point] |
| CCC(CC)C(=O)N(CCc1ccc(OC)cc1)Cc1nc2ccccc2c(=O)[nH]1 | 74.7% | 3.66 µM [rising, single point] | 16.4 µM [rising, partial curve] |
| CC(C(=O)N1CCOCC1)N1C(=O)C2C3CC(C(Br)C3Br)C2C1=O (stereo not given) | 27.2% | 18.4 µM [rising, single point] | – |
| O=C(Nc1nc2ccccc2[nH]1)C12CC3CC(CC(C3)C1)C2 | – | 7.31 µM [falling, single point] | – |
| C=C(C)C(C)(C#CCN1CCCC1)OC(C)=O (stereo not given) | -101% | 20.6 µM [falling, partial curve] | 11.6 µM [falling, partial curve] |
| CCOc1ccccc1-n1c(SCC(=O)NC)nnc1-c1ccco1 | 27.2% | 0.13 µM [falling, full curve, poor fit] | – |
| Cc1cc(Nc2ccccc2)n(CCO)n1 | 37.6% | – | 8.2 µM [rising, partial curve] |
